Results: US20030158378A1 (Amgen, published 2003)
Results are given in words; binding and its absence hold for the method and conditions named. In cells and extracts the contact can be indirect. Sequences can lack the tags named with a protein.

Biological target: TGFβ
Assay: co-immunoprecipitation with anti-mCHL2 antiserum and protein A agarose, Western blot

B1: FLAG-tagged murine CHL2 polypeptide (mCHL2-FLAG) (protein, not shown: small tags and cut ends)
chain: LSRSGKVCLFGEKIYTPGQSWHPYLEPQGTIYCVRCTCSENGHVNCYRLRCPPLHCSQPVMEPQQCCPRCVDPHVPSGLRVPLKSCQLNETTYQHGEIFSAQELFPARLSNQCVLCSCIEGHTYCGLMTCPEPSCPTTLPLPDSCCQTCKDRTTESSTEENLTQLQHGERHSQDPCSERRGPSTPAPTSLSSPLGFIPRHFQSVGMGSTTIKIILKEKHKKACTHNGKTYSHGEVWHPTVLSFGPMPCILCTCIDGYQDCHRVTCPTQYPCSQPKKVAGKCCKICPEDEAEDDHSEVISTRCPKVPGQFQVYTLASPSPDSLHRFVLEHEASDQVEMYIWKLVKGIYHLVQIKRVRKQDFQKEAQNFRLLTGTHEGYWTVFLAQTPELKVTASPDKVTKTL
With B1 the binding was “no binding (tested: mCHL2-FLAG protein was used at 600 ng/ml)”.
